Measured values reported in PubChem BioAssay AID1671190 (National Center for Advancing Translational Sciences (NCATS), 2021).
“And” between values parts separate entries of the source, which are not always exact repeats. Identical values can stand only once. About 6,100 (1.1%) of roughly 580,000 compounds were called active. This list was built around the results that the source calls inconclusive (neither active nor inactive); the mix of calls is not that of the screen. Calls follow the shape of the dose curve; as a rule, active = well fitted inhibition curve with a large enough effect; inconclusive = small, poorly fitted or top-dose-only effect, or another doubt; inactive = no such curve, though single readings can be large or run the other way. Potencies of inconclusive entries are doubtful fits and often do not repeat.

Amino acid sequences for entries named in this document (tags omitted). A change or cut given only in a name is not applied to a line headed by its entry.
UniProt P18054: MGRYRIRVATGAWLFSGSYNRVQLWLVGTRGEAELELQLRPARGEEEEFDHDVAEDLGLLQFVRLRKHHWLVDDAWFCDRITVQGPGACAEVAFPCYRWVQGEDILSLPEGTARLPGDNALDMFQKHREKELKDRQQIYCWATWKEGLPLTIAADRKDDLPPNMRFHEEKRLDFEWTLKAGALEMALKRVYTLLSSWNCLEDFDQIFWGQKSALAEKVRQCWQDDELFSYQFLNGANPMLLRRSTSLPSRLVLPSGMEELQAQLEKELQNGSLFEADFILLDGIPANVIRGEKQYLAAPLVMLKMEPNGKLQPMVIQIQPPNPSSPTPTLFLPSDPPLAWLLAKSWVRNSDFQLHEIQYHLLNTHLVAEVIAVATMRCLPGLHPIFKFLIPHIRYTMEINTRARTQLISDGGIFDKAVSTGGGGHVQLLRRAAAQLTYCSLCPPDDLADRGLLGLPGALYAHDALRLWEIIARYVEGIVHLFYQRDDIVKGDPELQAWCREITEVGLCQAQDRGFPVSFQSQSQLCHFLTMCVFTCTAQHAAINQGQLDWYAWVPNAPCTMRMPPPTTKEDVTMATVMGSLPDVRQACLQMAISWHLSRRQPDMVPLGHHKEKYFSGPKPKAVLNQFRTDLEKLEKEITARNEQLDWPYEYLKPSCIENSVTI

Biological target: Polyunsaturated fatty acid lipoxygenase ALOX12 (Homo sapiens) (UniProt P18054)
Experiment: Primary qHTS assay for inhibitors of human arachidonate 12S-lipoxygenase (ALOX12): Round 2
Conditions: purified 12hLO, xylenol orange hydroperoxide absorbance; activity change, negative = inhibition: at 108 µM (top of the series) unless noted
Method in brief: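 Purified human 12hLO at 150 nM in 25 mM Hepes, 0.01% Triton X-100, pH 7.0, preincubated 15 min at room temperature with compound. Reaction started with 40 uM arachidonic acid, 30 min at room temperature. Hydroperoxide measured by Fe-xylenol orange, 573/405 nm absorbance ratio.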
% is scaled to controls: 0 for no effect and ±100 for the full control effect; potency is read from the fitted curve at half-maximal effect.

| Compound | activity change, negative = inhibition | Potency |
| --- | --- | --- |
| COc1cccc(Cn2c(C(C)n3c(C)nc4ccccc43)nc3ccccc32)c1 (configuration not stated) | inactive: -68.3% |  |
| N=c1n(CC(=O)c2ccc([N+](=O)[O-])cc2)c2ccccc2n1Cc1ccc(Cl)cc1 |  | inconclusive: 56.2 µM [inhibitor, partial curve, poor fit] |
| CCn1cc(C(=O)NC(C)c2ccccc2)c(=O)c2cc(S(=O)(=O)N3CCc4ccccc4C3)ccc21 (configuration not stated) |  | inconclusive: 56.2 µM [inhibitor, partial curve, poor fit] |
| CC(Sc1ccc(C#N)cc1)C(=O)NC1CCCC1 (configuration not stated) |  | inconclusive: 50.1 µM [inhibitor, partial curve, poor fit] |
| COc1ccc(-c2nc3ccc(Cl)cn3c2Cc2cccc(F)c2)cc1OC |  | inconclusive: 50.1 µM [inhibitor, partial curve, poor fit] |
| COc1cc(Cn2c3ccc(NC(=S)NCc4ccc(C)cc4)cc3c(=O)n2C)ccc1F |  | inconclusive: 35.5 µM [inhibitor, partial curve] |
| CCN(CC)c1ccc(NC(=O)c2ccc(=O)[nH]c2)cc1S(=O)(=O)Nc1ccccc1OC |  | inconclusive: 39.8 µM [inhibitor, partial curve] |
| O=C(O)c1cccc(Cn2c(Cl)c(/C=N/NC(=O)c3cc4ccccc4cc3O)sc2=O)c1 |  | inconclusive: 39.8 µM [inhibitor, partial curve, poor fit] |
| Cc1occc1C(=O)N1CCN(c2ccc(Cl)c(Cl)c2)CC1 |  | inconclusive: 50.1 µM [inhibitor, partial curve, poor fit] |
| CN(C(=O)c1cccc(NC(=O)Cc2ccc(NC(=O)C3CCN(C(=O)C4CCC4)CC3)cc2)c1)C1CCCC1 |  | inconclusive: 112 µM [inhibitor, single point] |
| CCCN(c1ccc(C)cc1)c1nc(=O)c2cccnc2s1 |  | inconclusive: 112 µM [inhibitor, partial curve, poor fit] |
| CCC(=O)NNc1nc2c(C)c(C)ccc2s1 | inactive: -18.4% |  |
| COc1cccc(C(=O)N2CCC(N3CC(C)OC(C)C3)CC2)c1 (configuration not stated) |  | inconclusive: 1.26 µM [inhibitor, full curve, poor fit] |
| Cc1ccc(-c2noc([C@@H]3CCCN3C(=O)Cc3ccccc3Cl)n2)cc1 |  | inconclusive: 15.8 µM [inhibitor, full curve] |
| Nc1cccc(OCc2ccccc2)c1 |  | inconclusive: 50.1 µM [inhibitor, partial curve, poor fit] |
| CNC(=O)c1cn(-c2ccccc2)c(=O)c2ccccc12 |  | inconclusive: 44.7 µM [inhibitor, partial curve, poor fit] |
| COc1ccc(CNC(=O)CCCn2c(SCC#N)nc3cc4c(cc3c2=O)OCO4)cc1 | inactive: 4.74% |  |
| COCCn1c(SCC(=O)Nc2cccnc2Cl)nc2ccccc21 |  | inconclusive: 112 µM [inhibitor, single point] |
| c1ccc(C(=NNc2nc3ccccc3s2)c2ccccn2)cc1 |  | active: 44.7 µM |
| CCn1nc(NC(=O)COC)c2cc3cc(C)ccc3nc21 |  | inconclusive: 70.8 µM [inhibitor, partial curve, poor fit] |
| CCOC(=O)c1cccc(NC(=O)c2cnn(-c3ccccc3)c2-n2cccc2)c1 | inactive: -8.15% |  |

| Compound | activity change, negative = inhibition | Potency |
| --- | --- | --- |
| CNc1oc(-c2ccc(Cl)cc2)nc1P(=O)(c1ccccc1)c1ccccc1 |  | inconclusive: 50.1 µM [inhibitor, partial curve, poor fit] |
| CC(=O)N1c2ccccc2C(=O)C1N1CCN(c2cc(Cl)ccc2C)CC1 (configuration not stated) |  | inconclusive: 100 µM [inhibitor, partial curve, poor fit] |
| CC1(C)CC2CC(C)(CN2C(=O)c2cc(-c3ccc(O)cc3)on2)C1 (configuration not stated) |  | inconclusive: 100 µM [inhibitor, partial curve, poor fit] |
| CC1=C[C@@H](CNS(=O)(=O)c2cccc(F)c2)[C@H](C(C)C)C[C@H]1CC(=O)O |  | inconclusive: 31.6 µM [inhibitor, partial curve, poor fit] |
| COc1ccc(/C=C/C(=O)Sc2ccc(C)cc2)cc1 | inactive: 1.89% |  |
| O=C(COc1ccc(S(=O)(=O)N2CCOCC2)cc1)Nc1ccc(Cl)c(C(F)(F)F)c1 |  | inconclusive: 0.0316 µM [inhibitor, full curve, poor fit] |
| CCSc1nnc(NC(=O)CN2C(=O)C3CC=CCC3C2=O)s1 (configuration not stated) | inactive: -2.33% |  |
| CCCCN(C)C(=O)C(=O)c1c(C)[nH]c2ccccc12 | inactive: 44.4% |  |
| CN(C)NC(=S)NC1CCS(=O)(=O)C1 (configuration not stated) | inactive: 0% |  |
| CCC1CN(C(=O)Nc2ccccc2C(F)(F)F)c2ccccc2S1 (configuration not stated) |  | inconclusive: 141 µM [inhibitor, partial curve, poor fit] |
| Cc1cc(O)ccc1Nc1cc(-c2cccc(N)c2)ncn1 |  | inconclusive: 100 µM [inhibitor, partial curve, poor fit] |
| CN(C)CC(=O)N1Cc2ccccc2CC2(CCN(Cc3ccccc3)C2)C1 (configuration not stated) | inactive: 0.472% [at 6.33 µM] |  |
| COc1ccccc1Nc1nc(-c2sc(NC(C)=O)nc2C)cs1 |  | inconclusive: 50.1 µM [inhibitor, partial curve, poor fit] |
| CC1COCC(C)N1C1=C(Cl)C(=O)c2ccccc2C1=O (configuration not stated) |  | inconclusive: 50.1 µM [inhibitor, partial curve, poor fit] |
| CCOC(=O)c1c(C)[nH]c(C=O)c1Cc1cccc(Cl)c1 |  | inconclusive: 100 µM [inhibitor, single point] |
| CCCCCNCc1ccc(C)s1 | inactive: 0.0855% |  |
| N#Cc1nc(COc2cccc(Cl)c2)oc1NCc1ccco1 |  | inconclusive: 31.6 µM [inhibitor, partial curve, poor fit] and inconclusive: 44.7 µM [inhibitor, partial curve, poor fit] |
| O=C(NC[C@H]1Cn2c(-c3ccc4c(c3)OCO4)cnc2CO1)Nc1ccc(F)cc1 | inactive: 2.51% [at 176 µM] |  |
| Cn1c(=O)[nH]c(=O)c2c1nc(SCC(=O)Nc1ccccc1)n2Cc1ccccc1Cl | inactive: -26.3% |  |
| Cc1ccc(CNC(=O)c2cc(S(=O)(=O)N3CCCCC3)cn2C)cc1 | inactive: -15.1% |  |
| COc1ccccc1Cc1c(-c2ccco2)nc2cc(C)c(Br)c(C)n12 |  | inconclusive: 6.31 µM [inhibitor, partial curve, poor fit] |
